Test results taken from patent US20220119520A1.
These are yes or no findings as the source states them, for the method shown. Some results given as binding are weak or reduced against the parent protein; the word gives no strength.

B1: AB6.12-IgG4P (antibody, V domains shown)
VH: QMQLVQSGAEVKKTGSSVKVSCKASGFNIKDYYLHWVRQAPGQALEWMGWIDPDQGDTEYAQKFQDRVTITRDRSMSTAYMELSSLRSEDTAMYYCNAAYGSSSYPMDYWGQGTTVTVSS
VL: NIQMTQSPSAMSASVGDRVTITCKASQDIHRYLSWFQQKPGKVPKHLIYRANRLVSGVPSRFSGSGSGTEFTLTISSLQPEDFATYYCLQYDEFPYTFGGGTKVEIKR
B2: Hu26T-31-PE (antibody, human IgG4, V domains shown)
VH: QVQLVQSGAEVKKPGASVKVSCKASGYTFTDYYMNWVRQAPGQGLEWIGRIYPGSGLTYYNAKFKGRATVTADKSTSTVYMELSSLRSEDTAVYYCARTSYGSSFPHVWGQGTTVTVSS
VL: DIQMTQSPSSLSASVGDRVTITCKSSQSLLNVNDQKNYLAWYQQKPGKAPKLLIYFASTRESGVPSRFSGSGSGTDFTLTISSLQPEDFATYYCQQHYSTPLTFGQGTKLEIK
B3: Hu34-39-PE (antibody, human IgG4, V domains shown)
VH: QVQLQESGPGLVKPSQTLSLTCKASGYTFTNYWITWVKQRPGQGLEWIGDITPGRGETNYNQKFKGRVTLTVDISASTAYMELSSLRSEDTAVYYCSRWGLRRGDYWGQGTSVTVSS
VL: EIVLTQSPGTLSLSPGERATLSCRASSSVSSSYLNWYQQKSGASPKLWIYSTSNLASGVPGRFSGSGSGTSYSLTISSVEAEDAATYYCQQYSGYPLTFGAGTKLEVK
B4: Hu58A-14-PE (antibody, human IgG4, V domains shown)
VH: EVQLLESGGGLVQPGGSLRLSCAASGFIFSRFGMAWVRQTPDKRLEWVATISSGGSYTYYPDSVKGRLTISRDNAKTTLYLQMRSLKSEDTAMYYCARQGLLDYLYALDYWGQGTAVTVSS
VL: DIQMTQSPSSVSASIGDRVTITCKASQDINSFLAWFQQKPGKSPRPLIYRAYRLVDGVPSRFSGVGSGQDYSLTISSLDYEDLGIYYCQQYVEFPPTFGAGTMLELK

Each binder was assayed against Cynomolgus CD47-His (cynomolgus) (assay: ELISA on coated cynomolgus CD47-His, anti-human IgG HRP, OD450).

Binder	binding
B1	binds
B2	binds
B3	binds
B4	binds

Each binder was assayed against Cynomolgus CD47-His (cynomolgus) (assay: ELISA, cynomolgus CD47-His coated).

Binder	binding
B1	binds
B2	binds
B3	binds
B4	binds
